Measurements from the supplement of paper PMC10849652.
This is one part of the list.

By UniProt entry, the sequences of proteins in these tests, tags left out. Where a name states a change or a piece, a line headed by the entry shows the natural chain unless it says otherwise.
UniProt Q8TCD5: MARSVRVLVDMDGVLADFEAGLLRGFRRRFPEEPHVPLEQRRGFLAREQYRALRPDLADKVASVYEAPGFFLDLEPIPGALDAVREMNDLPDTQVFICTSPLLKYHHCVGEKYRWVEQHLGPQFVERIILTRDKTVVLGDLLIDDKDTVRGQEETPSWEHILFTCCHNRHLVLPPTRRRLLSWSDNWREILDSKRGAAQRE
UniProt Q8TAT6: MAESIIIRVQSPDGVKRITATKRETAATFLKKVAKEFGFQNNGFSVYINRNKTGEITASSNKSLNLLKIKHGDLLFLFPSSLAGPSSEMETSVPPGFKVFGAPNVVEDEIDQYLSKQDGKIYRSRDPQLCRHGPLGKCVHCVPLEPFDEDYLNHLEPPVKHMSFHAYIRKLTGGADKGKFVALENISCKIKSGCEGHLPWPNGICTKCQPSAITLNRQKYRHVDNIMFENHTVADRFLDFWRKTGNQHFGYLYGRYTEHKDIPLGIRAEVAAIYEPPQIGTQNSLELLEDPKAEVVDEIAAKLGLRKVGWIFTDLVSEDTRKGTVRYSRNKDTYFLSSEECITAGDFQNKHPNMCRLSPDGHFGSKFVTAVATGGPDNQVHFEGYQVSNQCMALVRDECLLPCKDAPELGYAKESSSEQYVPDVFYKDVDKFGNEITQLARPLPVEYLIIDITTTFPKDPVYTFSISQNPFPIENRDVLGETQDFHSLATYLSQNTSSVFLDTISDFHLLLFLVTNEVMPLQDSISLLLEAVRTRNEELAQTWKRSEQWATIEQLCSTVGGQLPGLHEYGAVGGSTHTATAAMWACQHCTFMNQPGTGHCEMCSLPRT
UniProt P15559, whole entry, looked up: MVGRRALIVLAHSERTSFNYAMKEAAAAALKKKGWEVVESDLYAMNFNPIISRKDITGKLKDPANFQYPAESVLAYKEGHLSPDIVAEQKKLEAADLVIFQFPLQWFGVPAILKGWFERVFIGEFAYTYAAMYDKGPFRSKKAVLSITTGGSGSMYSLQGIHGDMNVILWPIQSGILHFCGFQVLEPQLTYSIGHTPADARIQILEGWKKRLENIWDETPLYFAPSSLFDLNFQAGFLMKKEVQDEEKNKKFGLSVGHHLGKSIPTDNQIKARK
UniProt Q9H8H0: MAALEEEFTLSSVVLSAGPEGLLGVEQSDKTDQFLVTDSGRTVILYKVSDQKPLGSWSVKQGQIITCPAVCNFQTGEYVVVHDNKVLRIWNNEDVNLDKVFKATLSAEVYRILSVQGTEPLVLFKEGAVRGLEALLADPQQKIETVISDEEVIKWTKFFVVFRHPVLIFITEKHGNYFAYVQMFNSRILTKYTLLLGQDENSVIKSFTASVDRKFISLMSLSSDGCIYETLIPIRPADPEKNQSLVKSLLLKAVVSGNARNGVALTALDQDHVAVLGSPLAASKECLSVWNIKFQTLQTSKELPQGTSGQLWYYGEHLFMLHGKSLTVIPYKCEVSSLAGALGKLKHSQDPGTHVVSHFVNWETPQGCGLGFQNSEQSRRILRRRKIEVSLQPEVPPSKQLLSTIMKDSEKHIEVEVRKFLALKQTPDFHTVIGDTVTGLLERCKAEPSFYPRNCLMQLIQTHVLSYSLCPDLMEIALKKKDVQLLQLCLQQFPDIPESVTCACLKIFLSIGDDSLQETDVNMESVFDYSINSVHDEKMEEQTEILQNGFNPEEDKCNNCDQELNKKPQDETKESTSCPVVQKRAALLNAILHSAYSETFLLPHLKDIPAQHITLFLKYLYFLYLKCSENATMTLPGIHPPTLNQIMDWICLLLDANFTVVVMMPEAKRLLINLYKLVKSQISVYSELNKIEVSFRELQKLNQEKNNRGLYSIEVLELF
UniProt Q9UHY1: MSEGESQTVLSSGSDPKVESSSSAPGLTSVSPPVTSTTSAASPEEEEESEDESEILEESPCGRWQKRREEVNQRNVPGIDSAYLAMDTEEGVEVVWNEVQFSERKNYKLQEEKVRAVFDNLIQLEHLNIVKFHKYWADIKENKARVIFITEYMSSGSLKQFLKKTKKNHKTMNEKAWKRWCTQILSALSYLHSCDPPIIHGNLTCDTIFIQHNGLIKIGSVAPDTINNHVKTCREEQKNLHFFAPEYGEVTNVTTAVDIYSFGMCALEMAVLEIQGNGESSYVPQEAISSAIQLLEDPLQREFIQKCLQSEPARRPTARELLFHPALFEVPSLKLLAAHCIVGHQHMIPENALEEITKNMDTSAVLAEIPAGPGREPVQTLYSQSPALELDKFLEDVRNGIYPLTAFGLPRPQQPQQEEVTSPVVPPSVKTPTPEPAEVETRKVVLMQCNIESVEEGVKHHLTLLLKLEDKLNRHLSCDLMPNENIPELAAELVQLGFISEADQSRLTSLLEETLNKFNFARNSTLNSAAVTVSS
UniProt P80303: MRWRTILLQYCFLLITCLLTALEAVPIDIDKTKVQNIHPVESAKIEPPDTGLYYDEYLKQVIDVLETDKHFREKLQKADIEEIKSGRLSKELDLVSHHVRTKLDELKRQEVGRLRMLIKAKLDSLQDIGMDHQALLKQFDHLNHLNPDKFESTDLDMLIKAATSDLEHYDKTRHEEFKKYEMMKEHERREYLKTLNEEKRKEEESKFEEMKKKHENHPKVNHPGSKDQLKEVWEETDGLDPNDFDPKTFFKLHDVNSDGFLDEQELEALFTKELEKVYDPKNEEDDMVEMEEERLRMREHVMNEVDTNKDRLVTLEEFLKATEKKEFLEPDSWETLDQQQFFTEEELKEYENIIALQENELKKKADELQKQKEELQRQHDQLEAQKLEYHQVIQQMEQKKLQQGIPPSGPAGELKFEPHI
UniProt P06748, whole entry, looked up: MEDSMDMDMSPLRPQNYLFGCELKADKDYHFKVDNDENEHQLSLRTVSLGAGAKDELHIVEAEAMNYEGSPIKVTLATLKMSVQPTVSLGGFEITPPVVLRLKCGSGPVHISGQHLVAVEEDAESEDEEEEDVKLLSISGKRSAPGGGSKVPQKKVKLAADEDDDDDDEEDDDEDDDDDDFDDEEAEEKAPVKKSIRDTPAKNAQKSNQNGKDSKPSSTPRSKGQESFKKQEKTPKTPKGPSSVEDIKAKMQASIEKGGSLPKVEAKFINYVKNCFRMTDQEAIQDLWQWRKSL
UniProt O60551: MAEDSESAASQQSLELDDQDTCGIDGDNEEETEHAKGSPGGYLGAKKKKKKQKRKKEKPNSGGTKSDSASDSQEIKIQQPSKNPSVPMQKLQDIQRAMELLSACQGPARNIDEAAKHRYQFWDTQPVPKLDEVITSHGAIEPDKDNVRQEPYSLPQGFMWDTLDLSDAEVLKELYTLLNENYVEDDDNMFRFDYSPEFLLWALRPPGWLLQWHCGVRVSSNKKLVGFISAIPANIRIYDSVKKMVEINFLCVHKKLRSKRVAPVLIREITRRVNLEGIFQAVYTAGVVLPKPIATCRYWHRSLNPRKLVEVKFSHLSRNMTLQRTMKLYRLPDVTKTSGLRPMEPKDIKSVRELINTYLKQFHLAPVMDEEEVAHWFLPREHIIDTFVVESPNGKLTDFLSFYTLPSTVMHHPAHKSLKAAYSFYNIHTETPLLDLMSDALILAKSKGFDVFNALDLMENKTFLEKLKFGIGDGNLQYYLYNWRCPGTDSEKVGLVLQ
UniProt P22392, whole entry, looked up: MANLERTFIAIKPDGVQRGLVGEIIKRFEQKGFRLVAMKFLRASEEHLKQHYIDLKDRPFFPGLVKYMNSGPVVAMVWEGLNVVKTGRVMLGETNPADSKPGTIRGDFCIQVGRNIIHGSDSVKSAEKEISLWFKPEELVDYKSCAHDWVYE
UniProt P49757: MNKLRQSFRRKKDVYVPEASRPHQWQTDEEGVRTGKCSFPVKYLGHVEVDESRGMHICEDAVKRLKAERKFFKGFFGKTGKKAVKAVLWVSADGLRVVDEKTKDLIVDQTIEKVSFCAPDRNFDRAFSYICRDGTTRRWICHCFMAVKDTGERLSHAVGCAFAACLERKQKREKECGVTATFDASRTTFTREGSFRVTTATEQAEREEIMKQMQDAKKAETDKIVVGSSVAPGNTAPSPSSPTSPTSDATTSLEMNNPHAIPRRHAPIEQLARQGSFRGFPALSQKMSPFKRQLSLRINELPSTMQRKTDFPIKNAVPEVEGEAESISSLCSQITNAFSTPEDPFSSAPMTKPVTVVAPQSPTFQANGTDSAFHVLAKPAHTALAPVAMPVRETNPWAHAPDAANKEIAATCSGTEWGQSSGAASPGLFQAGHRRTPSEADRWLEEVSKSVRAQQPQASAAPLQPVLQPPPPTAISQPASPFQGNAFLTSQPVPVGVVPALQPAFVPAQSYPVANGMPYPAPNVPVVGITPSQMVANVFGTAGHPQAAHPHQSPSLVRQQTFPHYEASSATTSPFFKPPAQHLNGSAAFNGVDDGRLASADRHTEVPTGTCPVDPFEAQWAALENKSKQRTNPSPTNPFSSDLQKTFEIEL
UniProt P46087: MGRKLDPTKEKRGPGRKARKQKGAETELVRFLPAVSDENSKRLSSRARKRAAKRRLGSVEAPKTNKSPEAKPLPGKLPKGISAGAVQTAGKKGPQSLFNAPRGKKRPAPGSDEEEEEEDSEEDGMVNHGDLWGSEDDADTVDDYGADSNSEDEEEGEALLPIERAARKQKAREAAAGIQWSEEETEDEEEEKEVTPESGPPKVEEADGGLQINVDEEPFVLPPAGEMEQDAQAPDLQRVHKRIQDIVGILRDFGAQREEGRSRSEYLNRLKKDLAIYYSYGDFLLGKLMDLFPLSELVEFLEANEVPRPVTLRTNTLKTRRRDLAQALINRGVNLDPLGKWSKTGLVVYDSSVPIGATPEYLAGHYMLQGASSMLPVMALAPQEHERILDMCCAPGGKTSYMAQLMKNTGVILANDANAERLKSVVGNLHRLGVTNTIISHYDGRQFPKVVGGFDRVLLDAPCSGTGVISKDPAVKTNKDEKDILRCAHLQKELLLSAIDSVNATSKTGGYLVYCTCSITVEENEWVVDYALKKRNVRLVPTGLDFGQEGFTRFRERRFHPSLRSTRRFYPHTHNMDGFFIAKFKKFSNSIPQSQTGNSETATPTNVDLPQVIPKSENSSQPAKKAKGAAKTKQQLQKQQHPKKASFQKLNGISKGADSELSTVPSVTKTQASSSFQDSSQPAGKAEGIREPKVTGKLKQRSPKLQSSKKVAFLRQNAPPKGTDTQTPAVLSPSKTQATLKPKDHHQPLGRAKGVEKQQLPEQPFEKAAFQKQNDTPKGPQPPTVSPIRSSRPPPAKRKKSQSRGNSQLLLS
UniProt O43847: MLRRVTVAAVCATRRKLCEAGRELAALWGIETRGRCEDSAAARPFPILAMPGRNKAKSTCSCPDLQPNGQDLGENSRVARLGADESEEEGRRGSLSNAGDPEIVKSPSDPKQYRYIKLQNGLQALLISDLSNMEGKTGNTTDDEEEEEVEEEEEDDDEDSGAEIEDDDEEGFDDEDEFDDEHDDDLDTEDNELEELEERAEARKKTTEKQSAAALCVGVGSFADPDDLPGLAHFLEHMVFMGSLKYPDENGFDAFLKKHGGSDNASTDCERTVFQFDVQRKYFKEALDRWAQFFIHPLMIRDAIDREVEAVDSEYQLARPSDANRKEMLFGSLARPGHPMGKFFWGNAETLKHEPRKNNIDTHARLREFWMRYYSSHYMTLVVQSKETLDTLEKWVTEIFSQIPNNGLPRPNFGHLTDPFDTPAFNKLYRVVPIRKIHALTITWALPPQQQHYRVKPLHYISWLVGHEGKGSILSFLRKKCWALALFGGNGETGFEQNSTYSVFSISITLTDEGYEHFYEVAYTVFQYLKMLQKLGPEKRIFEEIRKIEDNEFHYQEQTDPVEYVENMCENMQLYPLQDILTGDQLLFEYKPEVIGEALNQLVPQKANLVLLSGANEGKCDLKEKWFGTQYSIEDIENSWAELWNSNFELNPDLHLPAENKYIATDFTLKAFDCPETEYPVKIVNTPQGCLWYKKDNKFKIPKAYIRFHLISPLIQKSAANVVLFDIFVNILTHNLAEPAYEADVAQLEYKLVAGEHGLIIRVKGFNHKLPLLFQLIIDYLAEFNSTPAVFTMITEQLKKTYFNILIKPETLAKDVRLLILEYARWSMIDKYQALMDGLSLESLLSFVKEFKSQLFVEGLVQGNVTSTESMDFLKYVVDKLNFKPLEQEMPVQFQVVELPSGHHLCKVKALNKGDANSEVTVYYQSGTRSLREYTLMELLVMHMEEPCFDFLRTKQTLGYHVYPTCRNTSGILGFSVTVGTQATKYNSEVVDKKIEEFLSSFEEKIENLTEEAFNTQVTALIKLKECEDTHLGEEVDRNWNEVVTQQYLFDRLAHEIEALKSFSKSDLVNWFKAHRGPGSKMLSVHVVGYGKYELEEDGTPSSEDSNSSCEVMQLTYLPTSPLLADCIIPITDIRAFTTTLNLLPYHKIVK
UniProt P61916: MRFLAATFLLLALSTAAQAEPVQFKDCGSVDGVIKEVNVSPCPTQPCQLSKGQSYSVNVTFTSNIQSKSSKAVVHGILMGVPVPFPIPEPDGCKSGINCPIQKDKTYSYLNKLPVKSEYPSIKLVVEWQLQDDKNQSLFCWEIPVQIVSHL

Columns and labels:
Assay in all cases: log2 fold change, soluble protein after heating vs DMSO (PISA); higher = thermal stabilisation; K562 lysate, 10 uM; active = over 0.2 and 3.5 SD of the protein, either way, in both replicates (recomputed)
vemurafenib = compound: CCCS(=O)(=O)Nc1ccc(F)c(C(=O)c2c[nH]c3ncc(-c4ccc(Cl)cc4)cc23)c1F [vemurafenib]
Outline: (§1)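 Following dounce homogenisation of K562 pellets in PBS pH 7.4 with 1 mM MgCl2, crude extract at 1 mg/mL protein was incubated for 30 min with 10 μM compound. Aliquots were then heated for 3 min over 48°C-58°C and pooled, NP-40 was added to 0.5% at 4°C, and soluble protein was recovered as the supernatant at 21,000xg for 90 min. Channel-sum-equalised TMTpro 16plex LC-MS/MS quantified this protein. Each value, from duplicates, is a log-two fold change in thermal stability relative to solvent controls.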

[1] = compound: CCCS(=O)(=O)Nc1ccc(F)c(C(=O)c2c[nH]c3ncc(Cl)cc23)c1F
Outline: as §1

barasertib = compound: CCN(CCCOc1ccc2c(Nc3cc(CC(=O)Nc4cccc(F)c4)[nH]n3)ncnc2c1)CCOP(=O)(O)O [barasertib]
Outline: as §1

[2] = compound: CC[C@@H]1C(=O)N(C)c2cnc(Nc3ccc(C(=O)NC4CCN(C)CC4)cc3OC)nc2N1C1CCCC1
Outline: as §1

volasertib = compound: CC[C@@H]1C(=O)N(C)c2cnc(Nc3ccc(C(=O)N[C@H]4CC[C@H](N5CCN(CC6CC6)CC5)CC4)cc3OC)nc2N1C(C)C [volasertib]
Outline: as §1

[3] = compound: CCn1c(C(=O)N(C2CC2)C2CC2)cc2c3c(ncn3C)c(Nc3cc(C)n(C)n3)nc21
Outline: as §1

[4] = compound: CCn1cc(-c2ccnc3[nH]c(-c4cccc(CN(C)C)c4)cc23)c(-c2ccc(NC(=O)N(C)C)cc2)n1
Outline: as §1

[5] = compound: CN1CCC(CNc2ccc3ncc(-c4cccc(OC(F)(F)F)c4)n3n2)CC1
Outline: as §1

saracatinib = compound: CN1CCN(CCOc2cc(OC3CCOCC3)c3c(Nc4c(Cl)ccc5c4OCO5)ncnc3c2)CC1 [saracatinib]
Outline: as §1

sotrastaurin = compound: CN1CCN(c2nc(C3=C(c4c[nH]c5ccccc45)C(=O)NC3=O)c3ccccc3n2)CC1 [sotrastaurin]
Outline: as §1

alvocidib = compound: CN1CC[C@H](c2c(O)cc(O)c3c(=O)cc(-c4ccccc4Cl)oc23)[C@H](O)C1 [alvocidib]
Outline: as §1

Tubastatin A = compound: CN1CCc2c(c3ccccc3n2Cc2ccc(C(=O)NO)cc2)C1 [Tubastatin A]
Outline: as §1

[6] = compound: CNC(=O)C1=CC=CC=C1NC2=NC(=NC=C2Cl)NC3=C(C=C(C=C3)N4CCOCC4)OC
Outline: as §1

defactinib = compound: CNC(=O)c1ccc(Nc2ncc(C(F)(F)F)c(NCc3nccnc3N(C)S(C)(=O)=O)n2)cc1 [defactinib]
Outline: as §1

[7] = compound: CNc1nc(-c2ccc3c(N)n[nH]c3c2)cc(N2C[C@@H](C(=O)NC3CCCCC3)CC[C@H]2C)n1
Outline: as §1

encorafenib = compound: COC(=O)N[C@@H](C)CNc1nccc(-c2cn(C(C)C)nc2-c2cc(Cl)cc(NS(C)(=O)=O)c2F)n1 [encorafenib]
Outline: as §1

[8] = compound: COC(=O)[C@H](CCSC)NC(=O)C1=C(C=C(C=C1)NC[C@H](CS)N)C2=CC=CC=C2
Outline: as §1

alisertib = compound: COc1cc(Nc2ncc3c(n2)-c2ccc(Cl)cc2C(c2c(F)cccc2OC)=NC3)ccc1C(=O)O [alisertib]
Outline: as §1

[9] = compound: COc1cc2nc(-c3cc(F)ccc3O)nc(N[C@@H]3CNC[C@H]3C(C)(C)O)c2cc1OC
Outline: as §1

gefitinib = compound: COc1cc2ncnc(Nc3ccc(F)c(Cl)c3)c2cc1OCCCN1CCOCC1 [gefitinib]
Outline: as §1

Measured: log2 fold change

NT5C (UniProt Q8TCD5)
inactive: vemurafenib -0.011 | [1] 0.032 | barasertib -0.091 | [2] -0.038 | volasertib -0.023 | [3] 0.016 | [4] 0.261 | [5] 0 | saracatinib 0 | sotrastaurin 0.002 | alvocidib 0.004 | Tubastatin A 0.033 | [6] 0.009 | defactinib -0.019 | [7] 0.002 | encorafenib -0.035 | [8] -0.026 | alisertib 0.074 | [9] -0.068 | gefitinib 0.05

NPLOC4 isoform 2 (UniProt Q8TAT6)
inactive: vemurafenib -0.011 | [1] 0.025 | barasertib -0.019 | [2] 0.025 | volasertib -0.011 | [3] -0.016 | [4] -0.066 | [5] 0.007 | saracatinib 0.004 | sotrastaurin -0.005 | alvocidib -0.06 | Tubastatin A 0.013 | [6] 0.019 | defactinib -0.007 | [7] 0.043 | encorafenib 0.021 | [8] 0.016 | alisertib 0.004 | [9] -0.007 | gefitinib -0.018

NQO1 (UniProt P15559)
inactive: vemurafenib -0.014 | [1] 0.026 | barasertib 0.163 | [2] -0.097 | volasertib -0.082 | [3] -0.023 | [4] -0.067 | [5] -0.035 | saracatinib 0.155 | sotrastaurin 0.034 | alvocidib 0.007 | Tubastatin A -0.079 | [6] 0.068 | defactinib 0.003 | [7] -0.111 | encorafenib 0.043 | [8] 0.159 | alisertib -0.001 | [9] -0.042 | gefitinib 0.009

NOL11 (UniProt Q9H8H0)
inactive: vemurafenib 0.026 | [1] 0.017 | barasertib -0.01 | [2] 0.033 | volasertib -0.022 | [3] -0.068 | [4] -0.088 | [5] 0.035 | saracatinib -0.02 | sotrastaurin 0.065 | alvocidib 0.027 | Tubastatin A -0.018 | [6] 0.023 | defactinib 0.026 | [7] 0.034 | encorafenib 0.036 | [8] -0.055 | alisertib -0.003 | [9] 0.045 | gefitinib -0.034

NRBP1 (UniProt Q9UHY1)
inactive: vemurafenib 0.011 | [1] 0.017 | barasertib 0.016 | [2] 0.025 | volasertib -0.005 | [3] -0.053 | [4] -0.042 | [5] 0.086 | saracatinib 0.016 | sotrastaurin 0.02 | alvocidib -0.022 | Tubastatin A 0.018 | [6] 0.011 | defactinib -0.046 | [7] 0.01 | encorafenib -0.026 | [8] 0.038 | alisertib 0.003 | [9] 0.03 | gefitinib -0.005

Looked up one by one from the entries so far (2):
NPLOC4 isoform 2 (UniProt Q8TAT6)
inactive: vemurafenib -0.011 | [1] 0.025 | barasertib -0.019 | [2] 0.025 | volasertib -0.011 | [3] -0.016 | [4] -0.066 | [5] 0.007 | saracatinib 0.004 | sotrastaurin -0.005 | alvocidib -0.06 | Tubastatin A 0.013 | [6] 0.019 | defactinib -0.007 | [7] 0.043 | encorafenib 0.021 | [8] 0.016 | alisertib 0.004 | [9] -0.007 | gefitinib -0.018

NQO1 (UniProt P15559)
inactive: vemurafenib -0.014 | [1] 0.026 | barasertib 0.163 | [2] -0.097 | volasertib -0.082 | [3] -0.023 | [4] -0.067 | [5] -0.035 | saracatinib 0.155 | sotrastaurin 0.034 | alvocidib 0.007 | Tubastatin A -0.079 | [6] 0.068 | defactinib 0.003 | [7] -0.111 | encorafenib 0.043 | [8] 0.159 | alisertib -0.001 | [9] -0.042 | gefitinib 0.009

Later entries

NUCB2 (UniProt P80303)
active: [4] 0.338
inactive: vemurafenib 0.01 | [1] -0.009 | barasertib -0.004 | [2] 0.052 | volasertib 0.022 | [3] -0.008 | [5] -0.084 | saracatinib 0.015 | sotrastaurin -0.026 | alvocidib 0.061 | Tubastatin A 0.036 | [6] 0.007 | defactinib -0.039 | [7] 0.005 | encorafenib 0.001 | [8] -0.027 | alisertib 0.003 | [9] 0.014 | gefitinib 0.004

NPM1 (UniProt P06748)
inactive: vemurafenib 0.004 | [1] -0.019 | barasertib -0.022 | [2] -0.004 | volasertib 0.006 | [3] -0.001 | [4] 0.011 | [5] -0.005 | saracatinib 0.004 | sotrastaurin 0.003 | alvocidib 0.019 | Tubastatin A 0.01 | [6] 0.003 | defactinib 0.001 | [7] 0.033 | encorafenib -0.031 | [8] 0.077 | alisertib 0 | [9] -0.005 | gefitinib 0.019

NMT2 (UniProt O60551)
inactive: vemurafenib 0.093 | [1] 0.033 | barasertib -0.004 | [2] -0.038 | volasertib 0.03 | [3] -0.013 | [4] -0.037 | [5] 0.029 | saracatinib -0.002 | sotrastaurin 0.005 | alvocidib -0.023 | Tubastatin A 0.064 | [6] 0.005 | defactinib -0.036 | [7] 0.009 | encorafenib -0.014 | [8] 0.077 | alisertib 0.018 | [9] -0.001 | gefitinib -0.017

NME2 isoform 2 (UniProt P22392)
inactive: vemurafenib -0.003 | [1] 0.003 | barasertib -0.032 | [2] 0.018 | volasertib 0.043 | [3] -0.034 | [4] -0.07 | [5] 0.063 | saracatinib 0.007 | sotrastaurin 0.008 | alvocidib 0.004 | Tubastatin A 0.055 | [6] -0.011 | defactinib -0.014 | [7] 0.032 | encorafenib -0.028 | [8] -0.043 | alisertib 0.016 | [9] 0.005 | gefitinib -0.012

NUMB (UniProt P49757)
inactive: vemurafenib 0.001 | [1] 0.001 | barasertib 0.028 | [2] 0.06 | volasertib -0.015 | [3] 0.008 | [4] 0.055 | [5] -0.061 | saracatinib 0.024 | sotrastaurin -0.134 | alvocidib -0.021 | Tubastatin A -0.125 | [6] -0.028 | defactinib -0.02 | [7] 0.026 | encorafenib 0.094 | [8] 0.013 | alisertib -0.031 | [9] -0.007 | gefitinib 0.052

NUDT1 (UniProt P36639)
inactive: vemurafenib 0.013 | [1] 0.024 | barasertib -0.002 | [2] 0.12 | volasertib 0.079 | [3] -0.012 | [4] -0.038 | [5] 0.039 | saracatinib 0.028 | sotrastaurin 0.028 | alvocidib -0.014 | Tubastatin A -0.025 | [6] -0.05 | defactinib -0.028 | [7] 0.009 | encorafenib -0.03 | [8] -0.038 | alisertib 0 | [9] -0.035 | gefitinib 0.01

NOP2 isoform 4 (UniProt P46087)
inactive: vemurafenib 0.046 | [1] 0.013 | barasertib 0.007 | [2] 0.001 | volasertib -0.005 | [3] 0.016 | [4] -0.036 | [5] 0.024 | saracatinib 0.01 | sotrastaurin -0.009 | alvocidib 0.021 | Tubastatin A 0.001 | [6] -0.001 | defactinib -0.01 | [7] 0.069 | encorafenib 0.074 | [8] -0.02 | alisertib 0.004 | [9] -0.017 | gefitinib -0.021

NRDC isoform 2 (UniProt O43847)
inactive: vemurafenib 0.006 | [1] -0.001 | barasertib 0.012 | [2] -0.049 | volasertib -0.005 | [3] 0.006 | [4] -0.019 | [5] -0.037 | saracatinib 0.001 | sotrastaurin -0.006 | alvocidib 0.013 | Tubastatin A 0.007 | [6] 0 | defactinib -0.022 | [7] -0.028 | encorafenib -0.029 | [8] 0.007 | alisertib -0.011 | [9] 0.001 | gefitinib -0.019

NPC2 (UniProt P61916)
inactive: vemurafenib -0.169 | [1] 0.002 | barasertib 0.053 | [2] 0.124 | volasertib 0.076 | [3] 0.051 | [4] -0.166 | [5] 0.078 | saracatinib -0.079 | sotrastaurin -0.023 | alvocidib -0.082 | Tubastatin A -0.019 | [6] 0.009 | defactinib 0.182 | [7] -0.119 | encorafenib 0.047 | [8] -0.146 | alisertib 0.069 | [9] 0 | gefitinib 0.031

NMT1 (UniProt P30419)
inactive: vemurafenib 0.024 | [1] 0.016 | barasertib -0.025 | [2] 0.014 | volasertib -0.002 | [3] 0.01 | [4] -0.04 | [5] 0.001 | saracatinib 0.003 | sotrastaurin 0.025 | alvocidib 0.021 | Tubastatin A 0.001 | [6] 0.001 | defactinib 0.031 | [7] 0.011 | encorafenib -0.001 | [8] 0.087 | alisertib -0.005 | [9] 0.007 | gefitinib -0.006
